The record followed here is patent US20150232562A1 (Ablynx, published 2015).

These are yes or no findings as the source states them, for the method shown. Some entries that bind do so weakly or less than the wild type.

This assay concerns the target T1, recombinant human ErbB2/Fc chimera (human, UniProt P04626 23-652).
T1 construct: bought from R&D Systems; also called rhErbB2-Fc; rhErb2-Fc; Fc part of the bought chimera not given; not described
The assay is described as follows: ELISA, coated ErbB2/Fc.

B1: 15E12 (VHH)
VHH: EVQLMESGGGLVQAGGSLRLSCAANGLTFRRYDMGWYRQAPGQQREWVAAISGAGDINYADSVKGRFTMARDNANHTVHLQMNSLKPEDTAVYYCNANWKMLLGVENDYWGQGTQVTVSS
As to B1, the binding entry was “binds”.

B2: 15G8 (VHH)
VHH: EVQLVESGGGLVQPGGSLKLSCVASGFSLDDYGMTWVRQAPGKGLEWVSSINWNGTHTDYAYSVKGRFTISRDNAKNTLFLQMNSLTPENTAVYYCNQGWKILPAERRGHGTQVTVSS
notes: C-term myc-His6 tag
Take B2: the binding result is on record as “binds”.

B3: 2A5 (VHH)
VHH: EVQLVESGGGLVQPGGSLRLSCATSGFTFDDYAMTWVRQAPGKGLEWVSSINWSGTHTDYTDSVKGRFTISRNNANNTLYLQMNSLKSEDTAVYYCAKNWGDAGTTWFEKSGSAGQGTQVTVSS
notes: C-term myc-His6 tag
As to B3, the binding result is “binds”.

B4: 17E7 (VHH)
VHH: EVQLVESGGSLVQPGGSLRLSCAASGFTFDDYAMSWVRQVPGKGLEWVSSINWSGTHTDYADSVKGRFTISRNNANNTLYLQMNSLKSEDTAVYYCAKNWRDAGTTWFEKSGSAGQGTQVTVSS
notes: C-term myc-His6 tag
As for B4, the binding entry is recorded as “binds”.

B5: 17E10 (VHH)
VHH: EVQLVESGGSLVQPGGSLRLSCAASGFTFDDYAMTWVRQAPGKGLEWVSSINWSGTHTDCTDSVKGRFTISRNNANNTLYLQMNSLKSEDTAVYYCAKNWGDAGTTWFEKSGSAGQGTQVTVSS
notes: C-term myc-His6 tag
Regarding B5, the binding result was “binds”.

B6: 2F3 (VHH)
VHH: EVQLVESGGSLVQPGGSLRLSCAASGFTFDDYAMTWVRQAPGKGLEWVSSINWSGTHTDYTGSVKGRFTISRNNANNTLYLQMNSLKSDDTAVYYCAKNWGDAGTTWFEKSGSAGPGTQVTVSS
notes: C-term myc-His6 tag
In the case of B6, the binding entry was “binds”.

B7: 17D8 (VHH)
VHH: EVQLVESGGSLVPPGGSLRLSCAVSGFTFDDYAMSWVRQAPGKGLEWVSSINWSGTHTDYTDSVKGRFTISRNNANNMLYLQMNSLKSEDTAVYYCAKNWRDAGTTWFEKSGSAGQGTQVTVSS
notes: C-term myc-His6 tag
B7: the binding result is on record as “binds”.

B8: 15E11 (VHH)
VHH: EVQLVESGGGLVQAGGSLRLSCVASRIPFSSRTMAWYRQAPGKQRDWVATISARGMPAYEDSVKGRFTVSRDNDKNTLYLQMNSLKPEDTAVYYCRDVNADYWGQGTQVTVSS
As for B8, the binding result was “binds”.

B9: 5G4 (VHH)
VHH: EVQLVESGGGLVQPGGSLTLSCAGSGFIFDDYAMSWVRQAPGKGLEWVSSINWSGSHRNYADSVKGRFTISRDNAKKTLYLQMNSLKSEDTAVYYCATGWQSTTKNQNYWGQGTQVTVSS
notes: C-term myc-His6 tag
On to B9, for which the binding result is “binds”.

B10: 15B7 (VHH)
VHH: EVQLVESGGGLVQPGGSLKLSCAASGFIFDDYAMSWVRQAPGKGLEWVSAINWSGSHRNYADSVKGRFTISRDNAKKTVYLQMNSLQSEDTAVYYCGTGWQSTTKSQGYWGQGTQVTVSS
notes: C-term myc-His6 tag
Turning to B10, the binding result is listed as “binds”.

B11: 15G7 (VHH)
VHH: EVQLVESGGGLVQPGGSLRLSCAASGFIFDDYAMSWVRQAPGKGLEWVSAINWSGTHRNYADSVKGRFTISRDNNKKTVYLQMNSLKSEDTAVYYCATGWQSTTKNQGYWGQGTQVTVSS
notes: C-term myc-His6 tag
With B11, the binding result is listed as “binds”.

B12: 17D11 (VHH)
VHH: EVQLVESGGGLVQAGGSLRLSCTASGRTSSTSAMGWFRQAPGKEREFVATISRGGSATYYADSLKGRFTISRDNAKNTLYLQMNSLKPEDTAVYYCAARRSSLYTSSNVFEYDYWGQGTQVTVSS
Consider B12, for which the binding result is recorded as “binds”.

B13: 17H4 (VHH)
VHH: EVQLVESGGGLVQPGGSLRLSCVASGFSLINYAMTWVRQAPGKGLEWVSSINWSGTHTDYADSVKGRFTISRDNAKNTLFLHMNNLSPEDTAVYYCGQGWKIHPADRGGHGTQVTVSS
notes: C-term myc-His6 tag
Turning to B13, the binding result is on record as “binds”.

B14: 38C6 (VHH)
VHH: EVQLVESGGGLVQPGGSLRLSCVGSGFSLDDYAMTWVRQAPGKGLEWVSSINWSGTHTDYADSVKGRFTISRDNAKNTLFLQMNSLSPEDTAVYYCNQGWKIRPTIPMGHGTQVTVSS
notes: C-term myc-His6 tag
For B14, the binding entry is “binds”.
